Experimental data published in article PMC11293393.

T1: ADNP2^Avi-3xFLAG (mouse (endogenous in mouse ES cells)) (UniProt Q8CHC8)
T1 sequence: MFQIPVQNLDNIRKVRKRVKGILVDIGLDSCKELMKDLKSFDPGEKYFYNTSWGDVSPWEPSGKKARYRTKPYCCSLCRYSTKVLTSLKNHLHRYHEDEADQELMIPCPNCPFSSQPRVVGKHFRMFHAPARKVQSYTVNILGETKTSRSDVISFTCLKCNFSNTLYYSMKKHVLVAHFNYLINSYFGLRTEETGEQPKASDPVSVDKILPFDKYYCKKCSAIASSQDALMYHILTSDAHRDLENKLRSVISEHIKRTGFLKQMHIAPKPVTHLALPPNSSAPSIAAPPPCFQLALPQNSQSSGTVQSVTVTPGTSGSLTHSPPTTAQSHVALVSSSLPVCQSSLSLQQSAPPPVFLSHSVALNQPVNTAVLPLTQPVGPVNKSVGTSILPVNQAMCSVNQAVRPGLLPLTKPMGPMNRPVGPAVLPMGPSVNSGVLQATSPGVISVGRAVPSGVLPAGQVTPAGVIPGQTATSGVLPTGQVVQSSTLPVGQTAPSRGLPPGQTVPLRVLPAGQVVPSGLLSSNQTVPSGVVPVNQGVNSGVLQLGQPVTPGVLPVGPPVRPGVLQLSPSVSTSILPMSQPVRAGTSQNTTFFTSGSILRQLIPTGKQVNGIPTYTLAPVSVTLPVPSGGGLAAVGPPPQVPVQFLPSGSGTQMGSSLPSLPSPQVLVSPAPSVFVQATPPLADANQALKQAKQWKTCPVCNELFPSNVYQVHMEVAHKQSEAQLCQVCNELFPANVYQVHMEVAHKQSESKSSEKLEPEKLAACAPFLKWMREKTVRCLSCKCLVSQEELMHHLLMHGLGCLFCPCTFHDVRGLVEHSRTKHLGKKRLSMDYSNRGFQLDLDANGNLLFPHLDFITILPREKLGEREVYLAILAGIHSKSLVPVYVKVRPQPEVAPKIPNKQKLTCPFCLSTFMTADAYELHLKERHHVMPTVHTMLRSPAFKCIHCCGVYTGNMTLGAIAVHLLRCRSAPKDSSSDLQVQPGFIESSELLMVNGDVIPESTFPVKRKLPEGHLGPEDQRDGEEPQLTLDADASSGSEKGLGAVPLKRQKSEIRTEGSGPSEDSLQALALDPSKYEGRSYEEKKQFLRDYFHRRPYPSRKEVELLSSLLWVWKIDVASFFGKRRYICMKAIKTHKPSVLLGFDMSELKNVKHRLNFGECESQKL

T2: ADNP^FKBP-3xFLAG-Avi (mouse (endogenous in mouse ES cells)) (UniProt Q9Z103)
T2 sequence: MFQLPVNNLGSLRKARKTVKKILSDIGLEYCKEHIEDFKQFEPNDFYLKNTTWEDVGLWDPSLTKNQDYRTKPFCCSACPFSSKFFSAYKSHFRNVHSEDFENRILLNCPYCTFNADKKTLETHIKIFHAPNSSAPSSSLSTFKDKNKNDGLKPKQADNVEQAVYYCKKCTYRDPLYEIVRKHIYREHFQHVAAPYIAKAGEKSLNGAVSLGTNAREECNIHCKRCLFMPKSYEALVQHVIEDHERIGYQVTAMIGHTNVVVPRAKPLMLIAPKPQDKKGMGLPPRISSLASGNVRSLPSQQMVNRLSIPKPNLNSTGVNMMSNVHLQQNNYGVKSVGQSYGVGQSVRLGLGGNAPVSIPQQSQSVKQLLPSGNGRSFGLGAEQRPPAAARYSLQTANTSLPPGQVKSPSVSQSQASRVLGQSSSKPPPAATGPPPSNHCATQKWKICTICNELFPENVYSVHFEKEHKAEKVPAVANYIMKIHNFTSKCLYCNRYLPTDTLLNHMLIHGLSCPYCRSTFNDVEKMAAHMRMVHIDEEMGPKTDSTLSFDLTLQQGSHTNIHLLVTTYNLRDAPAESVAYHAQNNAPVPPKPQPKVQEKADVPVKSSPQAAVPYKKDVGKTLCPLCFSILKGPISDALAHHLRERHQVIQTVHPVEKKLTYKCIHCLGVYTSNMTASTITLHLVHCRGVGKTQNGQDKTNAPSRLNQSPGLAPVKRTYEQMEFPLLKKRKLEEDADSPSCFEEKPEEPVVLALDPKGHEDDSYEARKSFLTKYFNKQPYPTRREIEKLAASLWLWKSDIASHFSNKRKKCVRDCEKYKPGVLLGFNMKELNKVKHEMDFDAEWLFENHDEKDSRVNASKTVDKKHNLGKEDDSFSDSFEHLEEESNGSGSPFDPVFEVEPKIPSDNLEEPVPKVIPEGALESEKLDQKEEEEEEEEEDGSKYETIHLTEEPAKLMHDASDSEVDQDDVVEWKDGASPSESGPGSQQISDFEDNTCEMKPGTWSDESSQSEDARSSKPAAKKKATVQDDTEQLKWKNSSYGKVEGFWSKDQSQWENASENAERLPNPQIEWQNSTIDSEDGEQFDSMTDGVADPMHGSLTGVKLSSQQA

B1: ADNP (protein, UniProt Q9Z103 1-1108)
chain: T2 sequence
B2: ADNP2 (protein, UniProt Q8CHC8 1-1165)
chain: T1 sequence

Tests used:
[1] = target: T1, ADNP2^Avi-3xFLAG (mouse (endogenous in mouse ES cells)); experiment: affinity purification with mass spectrometry; streptavidin M280 Dynabeads on lysate of mouse ES cells expressing ADNP2^Avi-3xFLAG, parental untagged cells as control, 350 mM NaCl, on-bead digestion, LC-MS, n = 3
[2] = target: T2, ADNP^FKBP-3xFLAG-Avi (mouse (endogenous in mouse ES cells)); experiment: affinity purification with mass spectrometry; purification of ADNP ('vice versa'); the paper does not tell which experiment

Binder	binding [1]	binding [2]
B1	no binding	–
B2	–	no binding

Results are given in words; binding and its absence hold for the method and conditions named. Binding seen in cells or lysates may run through a third protein. These calls come from enrichment with a bait or labelling near it, and not all partners need be listed. No binding means not detected with the bait. Tags and fused reporters may be left off the sequences shown.
